According to article PMC9502102:
Negatives hold for the conditions tested. For some assays here: Construct, isoform or probe ends are uncertain for at least one entry.

By UniProt entry, the sequences of proteins in these tests, tags left out. Residues count along the entry.
UniProt P02769, 25-607: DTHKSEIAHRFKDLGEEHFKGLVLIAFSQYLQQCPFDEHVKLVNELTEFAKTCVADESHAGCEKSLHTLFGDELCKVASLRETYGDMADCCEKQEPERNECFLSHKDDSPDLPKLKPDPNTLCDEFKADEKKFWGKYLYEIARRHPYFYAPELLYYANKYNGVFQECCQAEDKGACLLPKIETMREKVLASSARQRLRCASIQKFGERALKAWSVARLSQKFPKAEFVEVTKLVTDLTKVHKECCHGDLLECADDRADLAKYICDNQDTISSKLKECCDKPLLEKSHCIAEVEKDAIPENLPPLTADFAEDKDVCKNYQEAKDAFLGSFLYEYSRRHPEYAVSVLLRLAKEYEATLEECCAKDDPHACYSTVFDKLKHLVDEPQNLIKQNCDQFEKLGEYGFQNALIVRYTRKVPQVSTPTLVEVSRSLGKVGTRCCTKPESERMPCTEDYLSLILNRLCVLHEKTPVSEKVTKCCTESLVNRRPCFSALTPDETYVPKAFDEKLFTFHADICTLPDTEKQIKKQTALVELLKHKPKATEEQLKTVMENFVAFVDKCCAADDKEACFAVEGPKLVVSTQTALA

Columns and labels:
lysozyme = assay: fluorescence recovery (GO sensor); details: 0.001 nM protein; commercial protein; label: 3'-FAM; single-stranded DNA
BSA = BSA (UniProt P02769); assay: fluorescence recovery (GO sensor); details: 0.001 nM protein; commercial protein; label: 3'-FAM; single-stranded DNA

“AAAAGTCCGTGGTAGGGCAGGTTGGGGTGACT [Thrombin binding aptamer (TBA)]”: no binding (lysozyme); no binding (BSA).
